Consider 1 substance from publication doi:10.1101/2025.05.30.657104.

Protein sequences, listed by entry. Tags and fused reporters are not part of them.
UniProt Q9Y2X7: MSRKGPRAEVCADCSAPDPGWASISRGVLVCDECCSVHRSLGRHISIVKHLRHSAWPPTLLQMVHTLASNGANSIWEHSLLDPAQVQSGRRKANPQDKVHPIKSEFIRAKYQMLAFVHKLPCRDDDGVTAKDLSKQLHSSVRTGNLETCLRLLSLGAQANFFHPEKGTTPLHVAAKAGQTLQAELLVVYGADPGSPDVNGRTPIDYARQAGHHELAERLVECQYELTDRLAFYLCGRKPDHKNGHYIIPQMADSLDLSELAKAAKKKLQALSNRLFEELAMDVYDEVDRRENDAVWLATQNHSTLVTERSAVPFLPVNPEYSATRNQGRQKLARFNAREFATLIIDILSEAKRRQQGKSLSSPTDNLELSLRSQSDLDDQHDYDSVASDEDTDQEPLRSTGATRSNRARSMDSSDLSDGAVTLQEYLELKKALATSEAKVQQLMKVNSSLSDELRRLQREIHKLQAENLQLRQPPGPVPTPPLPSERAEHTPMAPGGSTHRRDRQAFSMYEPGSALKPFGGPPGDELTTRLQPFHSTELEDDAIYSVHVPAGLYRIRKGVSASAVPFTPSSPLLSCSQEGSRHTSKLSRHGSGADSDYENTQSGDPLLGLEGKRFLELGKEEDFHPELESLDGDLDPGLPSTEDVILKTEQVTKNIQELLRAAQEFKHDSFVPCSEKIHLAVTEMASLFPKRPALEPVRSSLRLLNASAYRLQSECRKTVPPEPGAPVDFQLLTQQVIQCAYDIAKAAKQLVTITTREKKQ

These are yes or no findings as the source states them, for the method shown. Binding seen in cells or lysates may run through a third protein. These calls come from enrichment with a bait or labelling near it, and not all partners need be listed. For some assays here: No binding means not detected with the bait.

Assay [1] deals with Protein kinase C alpha (PKCα) WT (human) (UniProt P17252). The assay can be described thus: affinity purification with mass spectrometry.
Assay [2] concerns the target Protein kinase C alpha D463H (PKCα_(D463H)) (human) (UniProt P17252). Briefly: affinity purification with mass spectrometry.

Consider “G-protein coupled receptor kinase interacting protein 1 (GIT1) (from UniProt Q9Y2X7 1-761)”, for which the binding result is “binds” in assay [1] and “no binding” in assay [2].
